In PMC10567751:
Results are given in words; binding and its absence hold for the method and conditions named. For some assays here: Binding seen in cells or lysates may run through a third protein. Some results given as binding are weak or reduced against the parent protein; the word gives no strength. Tags and fused reporters may be left off the sequences shown.

T1: TRIM26-FL-Flag (Tripartite motif containing 26, full length, Flag-tagged) (human) (UniProt Q12899)
T1 sequence: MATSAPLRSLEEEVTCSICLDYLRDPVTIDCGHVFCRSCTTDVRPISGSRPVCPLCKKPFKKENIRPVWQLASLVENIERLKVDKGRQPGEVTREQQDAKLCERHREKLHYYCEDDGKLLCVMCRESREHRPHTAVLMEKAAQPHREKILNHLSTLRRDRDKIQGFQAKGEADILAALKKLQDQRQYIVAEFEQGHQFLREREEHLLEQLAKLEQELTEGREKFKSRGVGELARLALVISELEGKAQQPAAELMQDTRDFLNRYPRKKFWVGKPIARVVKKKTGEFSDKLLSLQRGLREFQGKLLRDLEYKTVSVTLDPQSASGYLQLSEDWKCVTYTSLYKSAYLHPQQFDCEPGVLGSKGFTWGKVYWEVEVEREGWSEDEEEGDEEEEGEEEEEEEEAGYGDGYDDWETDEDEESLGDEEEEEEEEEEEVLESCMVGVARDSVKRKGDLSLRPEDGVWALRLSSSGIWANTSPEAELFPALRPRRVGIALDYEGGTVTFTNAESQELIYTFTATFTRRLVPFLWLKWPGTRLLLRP

T2: TRIM26-HA-GST (not stated (human or mouse cDNA cloned)) (UniProt Q12899)
T2 sequence: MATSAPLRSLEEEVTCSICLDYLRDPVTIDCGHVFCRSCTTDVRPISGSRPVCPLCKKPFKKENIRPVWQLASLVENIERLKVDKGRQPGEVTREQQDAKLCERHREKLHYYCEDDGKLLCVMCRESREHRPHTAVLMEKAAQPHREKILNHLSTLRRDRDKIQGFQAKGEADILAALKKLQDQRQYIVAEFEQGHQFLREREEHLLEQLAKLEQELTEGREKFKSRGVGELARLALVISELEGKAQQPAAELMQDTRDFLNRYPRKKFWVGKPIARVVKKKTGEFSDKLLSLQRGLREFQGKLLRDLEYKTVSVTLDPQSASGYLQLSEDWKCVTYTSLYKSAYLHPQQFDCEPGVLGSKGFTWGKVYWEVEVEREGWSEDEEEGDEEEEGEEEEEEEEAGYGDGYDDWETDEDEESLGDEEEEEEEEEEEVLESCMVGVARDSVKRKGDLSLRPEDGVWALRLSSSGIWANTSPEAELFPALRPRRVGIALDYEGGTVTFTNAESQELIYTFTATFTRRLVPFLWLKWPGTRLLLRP


Experiments:
[1] = target: T1, TRIM26-FL-Flag (Tripartite motif containing 26, full length, Flag-tagged) (human); experiment: co-IP; L02 cells transfected with TRIM26-Flag or CEBPD-HA plasmids; immunoblotting probed with anti-HA or anti-Flag antibody
[2] = target: T2, TRIM26-HA-GST (not stated (human or mouse cDNA cloned)); experiment: pull-down; MagneGST Pull-Down System; GST fusion from Rosetta-DE3 on GST particles (1 h, 4 degrees Celsius), then incubated with the tagged partner for 5 h; eluted, western blot; purified GST as control; both purified

binding [1]	binding [2]	Binder
binds		CEBPD-FL-HA (CCAAT/enhancer binding protein delta, full length, HA-tagged) (protein, UniProt P49716 1-269) MSAALFSLDGPARGAPWPAEPAPFYEPGRAGKPGRGAEPGALGEPGAAAPAMYDDESAIDFSAYIDSMAAVPTLELCHDELFADLFNSNHKAGGAGPLELLPGGPARPLGPGPAAPRLLKREPDWGDGDAPGSLLPAQVAACAQTVVSLAAAGQPTPPTSPEPPRSSPRQTPAPGPAREKSAGKRGPDRGSPEYRQRRERNNIAVRKSRDKAKRRNQEMQQKLVELSAENEKLHQRVEQLTRDLAGLRQFFKQLPSPPFLPAAGTADCR
	binds	CEBPD-His (protein, UniProt P49716 1-269) MSAALFSLDGPARGAPWPAEPAPFYEPGRAGKPGRGAEPGALGEPGAAAPAMYDDESAIDFSAYIDSMAAVPTLELCHDELFADLFNSNHKAGGAGPLELLPGGPARPLGPGPAAPRLLKREPDWGDGDAPGSLLPAQVAACAQTVVSLAAAGQPTPPTSPEPPRSSPRQTPAPGPAREKSAGKRGPDRGSPEYRQRRERNNIAVRKSRDKAKRRNQEMQQKLVELSAENEKLHQRVEQLTRDLAGLRQFFKQLPSPPFLPAAGTADCR
